Primary screen of a compound library

Amino acid sequences for entries named in this document (tags omitted). Residues count along the entry.
UniProt P9WPC5, whole entry: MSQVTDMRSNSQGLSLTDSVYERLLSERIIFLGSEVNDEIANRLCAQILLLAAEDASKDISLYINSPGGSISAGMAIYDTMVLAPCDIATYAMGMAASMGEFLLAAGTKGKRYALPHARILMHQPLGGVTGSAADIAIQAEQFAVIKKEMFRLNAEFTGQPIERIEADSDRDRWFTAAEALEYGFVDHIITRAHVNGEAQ
UniProt P9WPC3, whole entry partner: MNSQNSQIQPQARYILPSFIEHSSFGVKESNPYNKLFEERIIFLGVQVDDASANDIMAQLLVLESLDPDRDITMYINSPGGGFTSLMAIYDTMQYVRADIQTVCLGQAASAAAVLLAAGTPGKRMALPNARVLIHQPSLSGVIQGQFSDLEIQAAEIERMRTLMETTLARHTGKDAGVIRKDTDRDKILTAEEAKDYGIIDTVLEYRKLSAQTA
UniProt Q8IDJ8, 1-583: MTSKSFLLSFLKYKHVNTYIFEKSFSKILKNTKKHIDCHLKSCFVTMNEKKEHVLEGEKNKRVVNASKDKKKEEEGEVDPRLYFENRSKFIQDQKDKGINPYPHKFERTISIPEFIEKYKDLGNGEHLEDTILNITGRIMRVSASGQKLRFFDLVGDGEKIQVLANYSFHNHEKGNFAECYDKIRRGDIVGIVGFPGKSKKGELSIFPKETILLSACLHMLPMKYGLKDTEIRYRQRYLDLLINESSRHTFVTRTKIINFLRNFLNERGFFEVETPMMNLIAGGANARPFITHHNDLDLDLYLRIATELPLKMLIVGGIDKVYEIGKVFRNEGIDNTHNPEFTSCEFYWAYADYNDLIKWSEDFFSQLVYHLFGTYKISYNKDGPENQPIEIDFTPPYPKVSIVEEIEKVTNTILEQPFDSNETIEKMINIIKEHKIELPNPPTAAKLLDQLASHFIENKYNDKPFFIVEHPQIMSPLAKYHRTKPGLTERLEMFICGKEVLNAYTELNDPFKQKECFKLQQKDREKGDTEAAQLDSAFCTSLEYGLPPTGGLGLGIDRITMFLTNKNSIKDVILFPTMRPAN

From ChEMBL document CHEMBL3988442, “University of Dundee, Small-Polar-MMV Screening Library” (2021).

Results are given as percent effect. How 0% and 100% were set is not recorded. Most values in the screen are low, and negative values occur. This is an unselected part of the compounds tested.

Leishmania in macrophages: 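Cell assay of Leishmania donovani living inside macrophages; the read-out is not stated. Compounds at 30 µM. Direction is inferred from retests: higher values go with stronger inhibition. Of about 69,000 compounds tested this way, about 1,000 (1.5%) reached 50% or more in at least one test.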
ClpP1P2: 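Protease assay of ClpP1P2, read by the AMC dye that it sets free. Target: ClpP1P2, Mycobacterium tuberculosis (UniProt P9WPC5 and UniProt P9WPC3). Compounds at 50 µM. Direction is inferred from only a few compounds that gave an IC50; most scored high, so higher reads as stronger inhibition. Most other retested compounds had strongly negative values. Of about 69,000 compounds tested this way, about 10 (0.015%) reached 50% or more in at least one test.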
Toxoplasma: 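Assay of Toxoplasma gondii numbers, read through their beta-galactosidase reporter with a colour substrate. Compounds at 10 µM. Higher reads as fewer parasites (inferred from which compounds were picked for retests). Size under these conditions: about 67,000 compounds, about 260 of them at 50% or above in at least one test.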
PfKRS1: 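Enzyme assay of the cytosolic lysyl-tRNA synthetase in 384-well plates, read by luminescence. Target: Lysine-tRNA ligase, Plasmodium falciparum 3D7 (UniProt Q8IDJ8). Concentration: 30 µM. Direction is inferred from only a few compounds that gave an IC50; most scored high, so higher reads as stronger inhibition. About 69,000 compounds were tested under these conditions; 0.071% (about 49) showed 50% or more at least once.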

{"compound": "COc1c(CNCc2ccc3c(c2)OCO3)c(C(C)C)nn1C", "Leishmania in macrophages": -11.45, "ClpP1P2": -13.95, "Toxoplasma": -4.877, "PfKRS1": -1.429}
{"compound": "O=C(Nc1cccnc1)[C@H]1C[C@H]2OCC[C@H]2N(Cc2ccc(F)cc2)C1", "ClpP1P2": 0.08907, "PfKRS1": 8.035}
{"compound": "Cc1cc(Cc2ccc(F)cc2)cc(C2CCCNC2)n1", "stereo": "stereo not given", "Leishmania in macrophages": 22.51, "ClpP1P2": -0.7867, "Toxoplasma": 21.6, "PfKRS1": -0.6658}
{"compound": "CC(OCC1CC1)C(=O)NCc1ccc(Cn2ccnc2)cc1", "stereo": "stereo not given", "Leishmania in macrophages": 12.57, "ClpP1P2": -11.28, "Toxoplasma": -13.63, "PfKRS1": 2.315}
{"compound": "CCn1nc(C)c2nnn(CC(=O)Nc3ccc(C)c(C)c3)c(=O)c21", "Leishmania in macrophages": -87.23, "ClpP1P2": 6.012, "Toxoplasma": -1.145, "PfKRS1": 1.375}
{"compound": "Cc1cc(NCCNS(=O)(=O)c2cccc(Cl)c2)nc(C)n1", "Leishmania in macrophages": -18.33, "ClpP1P2": 8.472, "Toxoplasma": 4.543, "PfKRS1": -0.9211}
{"compound": "O=C(N1CCCC1)N1CC[C@H]2[C@H]1CCN2c1ncccn1", "ClpP1P2": 14.15, "PfKRS1": 2}
{"compound": "CN(C)C(=O)[C@@H]1CC[C@@H]2[C@@H](CCN2Cc2ccccn2)O1", "ClpP1P2": -11.82, "PfKRS1": 2.536}
{"compound": "Cn1cnc(S(=O)(=O)N2CCCC2)c1Cl", "Leishmania in macrophages": 14.79, "ClpP1P2": 7.967, "Toxoplasma": 7.677, "PfKRS1": 2.638}
{"compound": "CCOc1cccc(CSC(C)c2nc(C)no2)n1", "stereo": "stereo not given", "Leishmania in macrophages": 12.39, "ClpP1P2": -15.33, "Toxoplasma": -2.057, "PfKRS1": 5.627}
{"compound": "O=C(O)C(F)(F)F.[H][C@@]12CN(CC)C[C@]1(C(=O)N(C)C)CCC21CCN(S(C)(=O)=O)CC1", "Leishmania in macrophages": 38.94, "Toxoplasma": 24.16}
{"compound": "O=C(O)C(F)(F)F.O=C(c1nc2c(o1)CN(CC1CC1)C2)N1CCCC1", "Leishmania in macrophages": 20.03, "Toxoplasma": 3.032}
{"compound": "Cc1nn(C)cc1-c1ccnc(N(C)Cc2cccs2)n1", "Leishmania in macrophages": -9.873, "ClpP1P2": -7.182, "PfKRS1": -0.6614}
{"compound": "COC(=O)N1CCN(Cc2ccccc2C(C)(C)C#N)CC1", "Leishmania in macrophages": 8.262, "ClpP1P2": -3.78, "Toxoplasma": -3.461, "PfKRS1": -0.7704}
{"compound": "O=C(O)C(F)(F)F.O=C(O)C(F)(F)F.[H][C@@]12CCC(=O)N(CC3CC3)[C@]1([H])CCN2Cc1ccccn1", "Leishmania in macrophages": 7.467, "Toxoplasma": -14.46}
{"compound": "[H][C@@]12C[C@H](C(=O)N3CCOCC3)[C@@]([H])(CN(S(=O)(=O)CCC)C1)O2", "Leishmania in macrophages": 9.802, "Toxoplasma": -0.9985}
{"compound": "CN1CCC2(C=C(C(=O)N3CCCC3)c3ccccc32)CC1.O=C(O)C(F)(F)F", "Leishmania in macrophages": -8.8, "Toxoplasma": 8.258}
{"compound": "CN1CC(c2ccccc2)CC2(CCN(C(=O)c3cccnn3)CC2)C1", "stereo": "stereo not given", "Leishmania in macrophages": -14.61, "ClpP1P2": -3.962, "Toxoplasma": 5.322, "PfKRS1": 3.953}

Some entries from above, unchanged:

- O=C(N1CCCC1)N1CC[C@H]2[C@H]1CCN2c1ncccn1 | ClpP1P2: 14.15%; PfKRS1: 2%
- CCOc1cccc(CSC(C)c2nc(C)no2)n1 (stereo not given) | Leishmania in macrophages: 12.39%; ClpP1P2: -15.33%; Toxoplasma: -2.057%; PfKRS1: 5.627%